The list does not hold the whole screen: it covers a few groups of compounds. Not every dose and run of a compound is shown. T/C: endpoint of the treated group in % of that of the vehicle group. Some entries give survivors of the animals treated and no T/C: the source holds a T/C of zero for them, seemingly a mark for toxic or unscored doses. Some doses without a T/C left all or most animals alive at the check, yet need not have been tolerated: survival well below the control is almost never listed, so the zero probably covers shortened survival too. Counts of survivors are from the toxicity check (mostly the fifth day) where no day follows; animals may have died later. Schedules are NCI's codes, taken here to give the interval after Q, in days (D) or hours (H), and the number of doses after X. Some schedule codes hold Z or #, which are not explained here. Some metal complexes and salts are drawn in pieces, as in the source, so charges may not balance. Where survival is the endpoint, this PubChem deposit counts one and a half times the control or more as active, and values a quarter to a half above the control carry no call in these data; other NCI protocols may use other cut-offs. Some entries hold several experiments; the values are given in rising order. Some T/C values are marked as having no survivor count here; that says nothing about deaths at the dose. Some T/C values carry the count of animals alive at the toxicity check (mostly the fifth day); without a count or a note in brackets, all were alive then.
Tested on: L1210 leukemia ip in BDF1 mice, survival T/C
Experiment: NCI In Vivo Anticancer Drug Screen. Data for tumor model L1210 Leukemia (intraperitoneal) in B6D2F1 (BDF1) mice
Conditions: T/C endpoint: mean survival time, higher T/C = longer survival
[1] = dose: 100.0 mg/kg/injection, schedule: Q01DX009 (ip), vehicle: Klucel (hydroxypropylcellulose) (HPC)
[2] = dose: 100.0 mg/kg/injection, schedule: Q04DX003 (ip), vehicle: Klucel (hydroxypropylcellulose) (HPC)
[3] = dose: 200.0 mg/kg/injection, schedule: Q01DX009 (ip), vehicle: Klucel (hydroxypropylcellulose) (HPC)
[4] = dose: 200.0 mg/kg/injection, schedule: Q04DX003 (ip), vehicle: Klucel (hydroxypropylcellulose) (HPC)
[5] = dose: 400.0 mg/kg/injection, schedule: Q04DX003 (ip), vehicle: Klucel (hydroxypropylcellulose) (HPC)
[6] = dose: 50.0 mg/kg/injection, schedule: Q04DX003 (ip), vehicle: saline
[7] = dose: 100.0 mg/kg/injection, schedule: Q04DX003 (ip), vehicle: saline
[8] = dose: 100.0 mg/kg/injection, schedule: Q04DX002 (ip), vehicle: saline with Tween-80
[9] = dose: 200.0 mg/kg/injection, schedule: Q04DX002 (ip), vehicle: saline with Tween-80
[10] = dose: 400.0 mg/kg/injection, schedule: Q04DX002 (ip), vehicle: saline with Tween-80

O=C1C(Cl)=C(NCCBr)C(=O)C(Cl)=C1NCCBr
T/C (dose: 12.5 mg/kg/injection, schedule: Q04DX003 (ip), vehicle: Klucel (hydroxypropylcellulose) (HPC)): 92 % of control | T/C (dose: 25.0 mg/kg/injection, schedule: Q04DX003 (ip), vehicle: Klucel (hydroxypropylcellulose) (HPC)): 98 % of control | T/C (dose: 50.0 mg/kg/injection, schedule: Q04DX003 (ip), vehicle: Klucel (hydroxypropylcellulose) (HPC)): 103 % of control | T/C [1]: 87 % of control | T/C [2]: 92 % of control | T/C [3]: 93 % of control | T/C [4]: 95 % of control | T/C (dose: 400.0 mg/kg/injection, schedule: Q01DX009 (ip), vehicle: Klucel (hydroxypropylcellulose) (HPC)): 90 % of control | T/C [5]: 97 % of control

CN(C)P(=O)(N(C)C)n1c(Nc2ccccc2)nnc1-c1ccccc1
T/C (dose: 0.75 mg/kg/injection, schedule: Q01DX009 (ip), vehicle: saline): 105 % of control | T/C (dose: 1.5 mg/kg/injection, schedule: Q01DX009 (ip), vehicle: saline): 98 % of control | T/C (dose: 1.5 mg/kg/injection, schedule: Q04DX003 (ip), vehicle: saline): 110 % of control | T/C (dose: 3.0 mg/kg/injection, schedule: Q01DX009 (ip), vehicle: saline): 107 % of control | T/C (dose: 3.0 mg/kg/injection, schedule: Q04DX003 (ip), vehicle: saline): 110 % of control | survivor count (dose: 6.0 mg/kg/injection, schedule: Q04DX003 (ip), vehicle: saline): 6 of 6 | survivor count (dose: 12.5 mg/kg/injection, schedule: Q04DX003 (ip), vehicle: saline): 0 of 6 | survivor count (dose: 25.0 mg/kg/injection, schedule: Q04DX003 (ip), vehicle: saline): 0 of 6 | survivor count [6]: 0 of 6 | survivor count [7]: 0 of 6 | survivor count (dose: 200.0 mg/kg/injection, schedule: Q04DX003 (ip), vehicle: saline): 0 of 6 | survivor count (dose: 400.0 mg/kg/injection, schedule: Q04DX003 (ip), vehicle: saline): 0 of 6

C1CCN(P2OCCO2)CC1
T/C [8]: 105 % of control | T/C [9]: 102 % of control | T/C [10]: 94 % of control

C[N+](CCCl)(CCCl)Cc1ccccc1
T/C (dose: 2.5 mg/kg/injection, schedule: Q01DX Z (ip), vehicle: saline): 97 % of control | T/C (dose: 5.0 mg/kg/injection, schedule: Q01DX Z (ip), vehicle: saline): 94 % of control | T/C (dose: 10.0 mg/kg/injection, schedule: Q01DX Z (ip), vehicle: saline): 95 and 108 % of control | T/C (dose: 20.0 mg/kg/injection, schedule: Q01DX Z (ip), vehicle: saline): 104 % of control | T/C (dose: 25.0 mg/kg/injection, schedule: Q01DX009 (ip), vehicle: saline with Tween-80): 110 % of control | T/C (dose: 40.0 mg/kg/injection, schedule: Q01DX Z (ip), vehicle: saline): 101 % of control | T/C [6]: 104 % of control | T/C [7]: 111 % of control

COc1n[nH]c(N=[N+]=[N-])n1
T/C [8]: 104 % of control | T/C [9]: 101 % of control | T/C [10]: 93 % of control

O=S(=O)(O)C(O)C(O)C(O)C(O)CNCCCl (stereo not given)
T/C (dose: 50.0 mg/kg/injection, schedule: Q01DX009 (ip), vehicle: saline): 95 % of control | T/C (dose: 100.0 mg/kg/injection, schedule: Q01DX009 (ip), vehicle: saline): 97 % of control | survivor count (dose: 200.0 mg/kg/injection, schedule: Q01DX009 (ip), vehicle: saline): 6 of 6 | survivor count (dose: 400.0 mg/kg/injection, schedule: Q01DX009 (ip), vehicle: saline): 1 of 6

C1C[N-]1.C1C[N-]1.C1C[N-]1.[Cl][Rh]([Cl])[Cl]
T/C (dose: 50.0 mg/kg/injection, schedule: Q01DX009 (ip), vehicle: Klucel (hydroxypropylcellulose) (HPC)): 108 % of control | T/C [1]: 105 % of control | T/C [2]: 114 % of control [5 of 6 alive] | T/C [3]: 103 % of control [5 of 6 alive] | T/C [4]: 113 % of control | survivor count [5]: 2 of 6

O=C(O)c1c([N+](=O)[O-])cc([N+](=O)[O-])c(-c2c([N+](=O)[O-])cc([N+](=O)[O-])cc2[N+](=O)[O-])c1[N+](=O)[O-]
T/C (dose: 100.0 mg/kg/injection, schedule: Q04DX003 (ip), vehicle: alcohol): 101 % of control [survivor count not shown] | T/C (dose: 200.0 mg/kg/injection, schedule: Q04DX003 (ip), vehicle: alcohol): 96 % of control [survivor count not shown]

CC(/C=N/N=C(\N)N[N+](=O)[O-])=N\N=C(/N)N[N+](=O)[O-]
T/C (dose: 15.0 mg/kg/injection, schedule: Q01DX Z (ip), vehicle: methylcellulose (MC)): 92 % of control | T/C (dose: 30.0 mg/kg/injection, schedule: Q01DX Z (ip), vehicle: methylcellulose (MC)): 86 % of control | T/C (dose: 30.0 mg/kg/injection, schedule: Q01DX Z (oral), vehicle: methylcellulose (MC)): 97 % of control [4 of 6 alive] | T/C (dose: 60.0 mg/kg/injection, schedule: Q01DX Z (ip), vehicle: methylcellulose (MC)): 97 % of control | T/C (dose: 60.0 mg/kg/injection, schedule: Q01DX Z (oral), vehicle: methylcellulose (MC)): 86 % of control [5 of 6 alive] | survivor count (dose: 120.0 mg/kg/injection, schedule: Q01DX Z (ip), vehicle: methylcellulose (MC)): 1 of 6 | T/C (dose: 120.0 mg/kg/injection, schedule: Q01DX Z (oral), vehicle: methylcellulose (MC)): 94 % of control [5 of 6 alive] | survivor count (dose: 240.0 mg/kg/injection, schedule: Q01DX Z (oral), vehicle: methylcellulose (MC)): 2 of 6

NC(=O)CNc1ccc([As](=O)(O)O)cc1
T/C (dose: 100.0 mg/kg/injection, schedule: Q01DX001 (ip), vehicle: Klucel (hydroxypropylcellulose) (HPC)): 101 % of control | T/C (dose: 200.0 mg/kg/injection, schedule: Q01DX001 (ip), vehicle: Klucel (hydroxypropylcellulose) (HPC)): 93 % of control | T/C (dose: 400.0 mg/kg/injection, schedule: Q01DX001 (ip), vehicle: Klucel (hydroxypropylcellulose) (HPC)): 93 % of control

COC(=O)C1(C)COP(=O)(N2CCCCCC2)OC1 (stereo not given)
T/C (dose: 100.0 mg/kg/injection, schedule: Q01DX001 (ip), vehicle: saline): 86 % of control | T/C (dose: 200.0 mg/kg/injection, schedule: Q01DX001 (ip), vehicle: saline): 96 % of control | T/C (dose: 400.0 mg/kg/injection, schedule: Q01DX001 (ip), vehicle: saline): 94 % of control

CSc1ncc(COP(=S)(Cl)Cl)c(N)n1
T/C (dose: 25.0 mg/kg/injection, schedule: Q01DX001 (ip), vehicle: saline with Tween-80): 102 % of control | T/C (dose: 50.0 mg/kg/injection, schedule: Q01DX001 (ip), vehicle: saline with Tween-80): 100 % of control | T/C (dose: 100.0 mg/kg/injection, schedule: Q01DX001 (ip), vehicle: saline with Tween-80): 95 % of control

O=C(O)CN1CC([N+](=O)[O-])([N+](=O)[O-])CC([N+](=O)[O-])([N+](=O)[O-])C1
T/C (dose: 75.0 mg/kg/injection, schedule: Q01DX001 (ip), vehicle: carboxymethylcellulose (CMC)): 96 % of control [survivor count not shown]

From PubChem BioAssay AID248 (DTP/NCI, 2004)
